Values from PubChem BioAssay AID1224826 (NIAID, 2016)
The whole screen tested about 17,000 reagents; shown is a random part of them. Of all reagents, about 1,110 (6.6%) were called active. 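Active means lowered or raised reporter signal; replicate intensities are raw and not normalised per plate.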 Reagents against one gene are numbered here. Not all columns of the deposit are shown.

- Test: 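Regulators of Tlr4 signalling leading to Tnf-alpha expression in macrophages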 (primary screen)
- Cells: RAW264.7 G9 macrophages from mouse bearing reporters for p65 (GFP) and the Tnf promoter (mCherry)
- Reagents: siRNA pool against mouse genes, 100 nM
- Time to read-out: 16 h of LPS stimulation, after 2 days of siRNA transfection
- Treatment: bacterial lipopolysaccharide (Salmonella minnesota R595), 10 ng/ml
- Detection: 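Imaged Tnf reporter mCherry in nuclei, minus background, normalised per plate to the median and expressed as robust z-scores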
- Reading the numbers: Tnf reporter robust z-score: higher = stronger Tnf promoter reporter signal after LPS
- Call rule: 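a well counts as active at a score of -1.3 or below (Tlr4 knock-down control median) or above 3 (raised signal); controls and wells holding fewer than 50 cells are excluded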
- Calls: active = Tnf reporter clearly lowered or raised; inactive = no clear change in Tnf reporter

no.	gene	pool no.	Tnf reporter robust z-score	fewer than 50 cells in well	Outcome
1	Arl9	1	-0.55	enough cells in well	inactive
2	Krtap9-3	1		fewer than 50 cells per well; well left out of calls	inactive
3	S1pr3	1	-0.32	enough cells in well	inactive
4	Fam187b	1	-0.73	enough cells in well	inactive
5	Or1j12	1	-0.45	enough cells in well	inactive
6	Sgf29	1	4.16	enough cells in well	active
7	Skp2	1	-0.01	enough cells in well	inactive
8	Idi1	1	0.54	enough cells in well	inactive
9	Or5b98	1	1.68	enough cells in well	inactive
10	Stx1b	1	-0.15	enough cells in well	inactive
11	Stx1b	2	-0.34	enough cells in well	inactive
12	Ndufb11	1	-0.36	enough cells in well	inactive
13	Agbl5	1	3.11	enough cells in well	active
14	Sst	1	0.43	enough cells in well	inactive
15	Dnai4	1	0.3	enough cells in well	inactive
16	Tnfaip8l1	1	3.04	enough cells in well	active
17	Fbxo11	1	-0.7	enough cells in well	inactive
18	Rif1	1	0.49	enough cells in well	inactive
19	B330016D10Rik	1	0.04	enough cells in well	inactive
20	Agtrap	1	0.43	enough cells in well	inactive
21	Glb1	1	-0.35	enough cells in well	inactive
22	Pbk	1	2.49	enough cells in well	inactive
23	Gm20555	1	0.15	enough cells in well	inactive
24	Fut4	1	0.95	enough cells in well	inactive
25	Sell	1	-0.43	enough cells in well	inactive
26	Or5m13b	1	0.79	enough cells in well	inactive
27	Ctif	1	-1.83	enough cells in well	active
28	Thumpd1	1	-0.57	enough cells in well	inactive
29	Ca7	1	0.79	enough cells in well	inactive
30	Vmn1r225	1	-0.65	enough cells in well	inactive
31	Klrc2	1	0.08	enough cells in well	inactive
32	Tmem114	1	1.88	enough cells in well	inactive
33	P3h2	1	-0.53	enough cells in well	inactive
34	Eps8l2	1	1.54	enough cells in well	inactive
35	Crcp	1	1.65	enough cells in well	inactive
36	Islr	1	1.59	enough cells in well	inactive
37	Lmbrd1	1	1.35	enough cells in well	inactive
38	Grip1	1	1	enough cells in well	inactive
39	Cox7a2l	1	-0.07	enough cells in well	inactive
40	Zfp532	1	0.18	enough cells in well	inactive

Called active, among the entries above:
gene	pool no.	Tnf reporter robust z-score	fewer than 50 cells in well	Outcome
Sgf29	1	4.16	enough cells in well	active
Agbl5	1	3.11	enough cells in well	active
Tnfaip8l1	1	3.04	enough cells in well	active
Ctif	1	-1.83	enough cells in well	active
